Laboratory results published in patent US8383139B2 (Bayer CropScience AG, priority 2008, dated 2013).
Some entries share one result that the patent states for a list of compounds.

Key:
Type in all cases: in vivo
Puccinia triticina = Puccinia triticina test (wheat)/protective; conditions: 500 ppm active substance, protective, evaluation 8 days after inoculation
Protocol: • Solvent: 50 parts by weight of N,N-dimethylacetamide • Emulsifier: 1 part by weight of alkylaryl polyglycol ether (polyoxyethylene (16) tristearylphenyl ether) To prepare a suitable active substance composition, 1 part by weight of active substance is mixed with the given amounts of solvent and emulsifier and the concentrate is diluted to the desired concentration using water. For the testing of protective effectiveness, young plants are sprayed with the active substance composition in the application rate given. After the spray coating has been dried on, the plants are sprayed with spores with a suspension of spores of Puccinia triticina. The plants remain in an incubation chamber at 20° C. and 100% relative humidity for 48 hours. The plants are placed in a greenhouse at a temperature of approximately 20° C. and a relative humidity of approximately 80%. Evaluation is carried out 8 days after the inoculation. In this connection, 0% means a degree of effectiveness corresponding to that of the control, while a degree of effectiveness of 100% means that no infestation is observed.

Septoria tritici = Septoria tritici test (wheat)/protective; conditions: 500 ppm active substance, protective, evaluation 21 days after inoculation
Protocol: • Solvent: 50 parts by weight of N,N-dimethylacetamide • Emulsifier: 1 part by weight of alkylaryl polyglycol ether (polyoxyethylene (16) tristearylphenyl ether) To prepare a suitable active substance composition, 1 part by weight of active substance is mixed with the given amounts of solvent and emulsifier and the concentrate is diluted to the desired concentration using water. For the testing of protective effectiveness, young plants are sprayed with the active substance composition at the application rate given. After the spray coating has dried on, the plants are sprayed with a suspension of spores of Septoria tritici. The plants remain in an incubation chamber at 20° C. and 100% relative humidity for 48 hours. The plants are afterwards placed under a transparent hood at 15° C. and 100% relative humidity for a further 60 hours. The plants are placed in a greenhouse at a temperature of approximately 15° C. and a relative humidity of 80%. Evaluation is carried out 21 days after the inoculation. In this connection, 0% means a degree of effectiveness corresponding to that of the control, while a degree of effectiveness of 100% means that no infestation is observed.

Uromyces appendiculatus = experiment: Uromyces test (beans)/protective; conditions: 100 ppm active substance, protective, evaluation 10 days after inoculation
Protocol: (§1) • Solvents: 24.5 parts by weight of acetone • 24.5 parts by weight of dimethylacetamide • Emulsifier: 1 part by weight of alkylaryl polyglycol ether (polyoxyethylene (16) tristearylphenyl ether)
(§2) To prepare a suitable active substance composition, 1 part by weight of active substance is mixed with the given amounts of solvents and emulsifier and the concentrate is diluted to the desired concentration using water.
For the testing of protective effectiveness, young plants are sprayed with the active substance composition in the application rate given. After the spray coating has been dried on, the plants are inoculated with an aqueous suspension of the spores of the bean rust pathogen Uromyces appendiculatus and then remain in an incubation chamber at approximately 20° C. and 100% relative humidity for 1 day.
The plants are then placed in a greenhouse at approximately 21° C. and a relative humidity of approximately 90%.
Evaluation is carried out 10 days after the inoculation. In this connection, 0% means a degree of effectiveness corresponding to that of the control, while a degree of effectiveness of 100% means that no infestation is observed.

Sphaerotheca fuliginea = experiment: Sphaerotheca test (cucumber)/protective; conditions: 500 ppm active substance, protective, evaluation 7 days after inoculation
Protocol: • Solvents: 49 parts by weight of N,N-dimethylformamide • Emulsifier: 1 part by weight of alkylaryl polyglycol ether (polyoxyethylene (16) tristearylphenyl ether) To prepare a suitable active substance composition, 1 part by weight of active substance is mixed with the given amounts of solvents and emulsifier and the concentrate is diluted to the desired concentration using water. For the testing of protective effectiveness, young cucumber plants are sprayed with the active substance composition in the application rate given. One day after the treatment, the plants are inoculated with a suspension of spores of Sphaerotheca fuliginea. Subsequently, the plants are placed in a greenhouse at 70% relative humidity and at a temperature of 23° C. Evaluation is carried out 7 days after the inoculation. In this connection, 0% means a degree of effectiveness corresponding to that of the control, while a degree of effectiveness of 100% means that no infestation is observed.

Alternaria solani = experiment: Alternaria test (tomato)/protective; conditions: 100 ppm active substance, protective, evaluation 3 days after inoculation
Protocol: as §1, §2
For the testing of protective effectiveness, young plants are sprayed with the active substance composition in the application rate given. After the spray coating has been dried on, the plants are inoculated with an aqueous suspension of spores of Alternaria solani. The plants are then placed in an incubation chamber at approximately 20° C. and 100% relative humidity.
Evaluation is carried out 3 days after the inoculation. In this connection, 0% means a degree of effectiveness corresponding to that of the control, while a degree of effectiveness of 100% means that no infestation is observed.

Phakopsora pachyrhizi = experiment: Phakopsora test (soybean)/protective; conditions: 500 ppm active substance, protective, evaluation 11 days after inoculation
Protocol: • Solvent: 28.5 parts by weight of acetone • Emulsifier: 1.5 parts by weight of polyoxyethylene alkylphenyl ether (polyoxy-ethylene (16) tristearylphenyl ether)
To prepare a suitable active substance composition, 1 part by weight of active substance is mixed with the given amounts of solvent and emulsifier and the concentrate is diluted to the desired concentration using water.
For the testing of protective effectiveness, young plants are sprayed with the active substance composition at the application rate given. One day after the spraying, the plants are sprayed with an aqueous suspension of spores of Phakopsora pachyrhizi. The plants remain in a greenhouse at 20° C. and 80% relative humidity.
Evaluation is carried out 11 days after the inoculation. In this connection, 0% means a degree of effectiveness corresponding to that of the control, while a degree of effectiveness of 100% means that no infestation is observed.

SMILES | degree of effectiveness (Puccinia triticina) [%] | degree of effectiveness (Septoria tritici) [%] | degree of effectiveness (Uromyces appendiculatus) [%] | degree of effectiveness (Sphaerotheca fuliginea) [%] | degree of effectiveness (Alternaria solani) [%] | degree of effectiveness (Phakopsora pachyrhizi) [%]
Cc1cc(Oc2nc(Cc3ccccc3Cl)ns2)c(C)cc1N=CN1CCCCC1 [Example 62] | ≥ 70 | ≥ 70 | ≥ 70 | ≥ 70 | ≥ 70 | ≥ 80
CCN(C)C=Nc1cc(C)c(Oc2nc(Cc3ccc(C(F)(F)F)cc3)ns2)cc1C [Example 71] | ≥ 70 | ≥ 70 | ≥ 70 | ≥ 70 | ≥ 70 | ≥ 80
COc1ccc(Cc2nsc(Oc3cc(C)c(N=CN4CCCCC4)cc3C)n2)cc1 [Example 76] | ≥ 70 | ≥ 70 | ≥ 70 | ≥ 70 | ≥ 70 | ≥ 80
CCN(C)C=Nc1cc(C)c(Oc2nc(Cc3ccccc3Cl)ns2)cc1C [Example 61] | ≥ 70 | ≥ 70 | ≥ 70 | ≥ 70 | ≥ 70 | ≥ 80
CCN(C)C=Nc1cc(C)c(Oc2nc(Cc3ccccc3C)ns2)cc1C [Example 72] | ≥ 70 | ≥ 70 | ≥ 70 | ≥ 70 | ≥ 70 | ≥ 80
Cc1cc(Oc2nc(Cc3ccc(F)cc3F)ns2)c(C)cc1N=CN1CCCCC1 [Example 55] | ≥ 70 | ≥ 70 | ≥ 70 | ≥ 70 | ≥ 70 | ≥ 80
Cc1cc(Oc2nc(Cc3c(F)cccc3Cl)ns2)c(C)cc1N=CN1CCCCC1 [Example 77] | ≥ 70 | ≥ 70 | ≥ 70 | ≥ 70 | ≥ 70 | ≥ 80
CCN(C)C=Nc1cc(C)c(Oc2nc(Cc3ccc(OC)cc3)ns2)cc1C [Example 75] | ≥ 70 | ≥ 70 | ≥ 70 | ≥ 70 | ≥ 70 | ≥ 80
CCN(C)C=Nc1cc(C)c(Oc2nc(Cc3ccccc3[N+](=O)[O-])ns2)cc1C [Example 106] | ≥ 70 | ≥ 70 | ≥ 70 | ≥ 70 | ≥ 70 | –
CCN(C)C=Nc1cc(C)c(Oc2nc(Cc3cccc(Br)c3)ns2)cc1C [Example 65] | ≥ 70 | ≥ 70 | ≥ 70 | ≥ 70 | ≥ 70 | –
Cc1cc(Oc2nc(Cc3cc(F)ccc3F)ns2)c(C)cc1N=CN1CCCCC1 [Example 84] | ≥ 70 | ≥ 70 | ≥ 70 | ≥ 70 | ≥ 70 | –
CCN(C)C=Nc1cc(C)c(Oc2nc(Cc3cccc(Cl)c3Cl)ns2)cc1C [Example 96] | ≥ 70 | ≥ 70 | ≥ 70 | ≥ 70 | ≥ 70 | –
CCN(C)C=Nc1cc(C)c(Oc2nc(Cc3c(F)cc(F)cc3F)ns2)cc1C [Example 105] | ≥ 70 | ≥ 70 | ≥ 70 | ≥ 70 | ≥ 70 | –
CCN(C)C=Nc1cc(C(C)C)c(Oc2nc(Cc3ccc(Cl)cc3)ns2)cc1C [Example 109] | ≥ 70 | ≥ 70 | ≥ 70 | ≥ 70 | ≥ 70 | –
CCN(C)C=Nc1cc(C(C)C)c(Oc2nc(Cc3ccc(Cl)cc3Cl)ns2)cc1C [Example 108] | ≥ 70 | ≥ 70 | ≥ 70 | ≥ 70 | ≥ 70 | –
Cc1cc(Oc2nc(Cc3ccccc3Br)ns2)c(C)cc1N=CN1CCCCC1 [Example 98] | ≥ 70 | ≥ 70 | ≥ 70 | ≥ 70 | ≥ 70 | –
CCN(C)C=Nc1cc(C)c(Oc2nc(Cc3ccc(C#N)cc3)ns2)cc1C [Example 69] | ≥ 70 | ≥ 70 | ≥ 70 | ≥ 70 | – | ≥ 80
Cc1cc(Oc2nc(Cc3ccccc3F)ns2)c(C)cc1N=CN1CCCCC1 [Example 104] | ≥ 70 | ≥ 70 | ≥ 70 | ≥ 70 | – | ≥ 80
CCN(C)C=Nc1cc(C)c(Oc2nc(Cc3cc(F)ccc3F)ns2)cc1C [Example 67] | ≥ 70 | ≥ 70 | ≥ 70 | ≥ 70 | ≥ 70 | –
CCN(C)C=Nc1cc(C(C)C)c(Oc2nc(Cc3ccc(F)cc3)ns2)cc1C [Example 110] | ≥ 70 | ≥ 70 | ≥ 70 | ≥ 70 | ≥ 70 | –
Cc1cc(Oc2nc(Cc3cccc(Br)c3)ns2)c(C)cc1N=CN1CCCCC1 [Example 59] | ≥ 70 | ≥ 70 | ≥ 70 | ≥ 70 | ≥ 70 | –
CCN(C)C=Nc1cc(Cl)c(Oc2nc(Cc3ccc(SC(F)(F)F)cc3)ns2)cc1C [Example 95] | ≥ 70 | ≥ 70 | ≥ 70 | ≥ 70 | – | ≥ 80
